For this test, the system named is BDF1 mice, B16 melanoma ip, median survival T/C. The test is described as follows: NCI In Vivo Anticancer Drug Screen. Data for tumor model B16 Melanoma (intraperitoneal) in B6D2F1 (BDF1) mice. Conditions: T/C endpoint: median survival time, schedule: Q01DX009 (ip), higher T/C = longer survival. Here is the method: The antitumor activity of compounds was measured in mice bearing transplantable tumors. Survival or tumor size were measured and the results are expressed as the measurement made in the treated group (T) divided by the measurement made in the vehicle treated control group (C). The tumor model used in this assay is B16 Melanoma (intraperitoneal) in B6D2F1 (BDF1) mice

The mark [1] stands for this setting: dose: 200.0 mg/kg/injection, vehicle: Klucel (hydroxypropylcellulose) (HPC).
[2] abbreviates: dose: 50.0 mg/kg/injection, vehicle: saline with Tween-80.
Setting [3] is: dose: 100.0 mg/kg/injection, vehicle: saline with Tween-80.

The list does not hold the whole screen: it gathers tests that were run many times, whatever their T/C, doses with no T/C, and many T/C values between a quarter and a half above the control. Further doses and runs are listed elsewhere. T/C gives the treated animals as a percentage of the vehicle group. Some entries give survivors of the animals treated and no T/C: the source files T/C as zero there, which appears to mark a toxic dose or a test without result, not a measured value. Some doses without a T/C left all or most animals alive at the check, yet need not have been tolerated: survival well below the control is almost never listed, so the zero probably covers shortened survival too. Counts of survivors are from the toxicity check (mostly the fifth day) where no day follows; animals may have died later. Schedules are NCI's codes, read here as Q, the interval in days (D) or hours (H), X, the number of doses. For survival time, this PubChem deposit counts one and a half times the control or more as active, and values a quarter to a half above the control carry no call in these data; other NCI protocols may use other cut-offs.

For the molecule `CCC1CCCCC1(O)CC` (configuration not stated), the survivor count under setting [1] is given as 10 of 10.

For the molecule `CCCCn1c(O)c(C=N)c(=O)n(CCCC)c1=O`, the survivor count reads like this: (dose: 12.5 mg/kg/injection, vehicle: saline with Tween-80) 10 of 10; (dose: 25.0 mg/kg/injection, vehicle: saline with Tween-80) 10 of 10; under setting [2], 9 of 10; under setting [3], 7 of 10.

As for `CCCN(C)N=Nc1ccccc1C(=O)O`, the T/C under setting [2] is 148 % of control. The survivor count reads like this: (dose: 100.0 mg/kg/injection, vehicle: Klucel (hydroxypropylcellulose) (HPC)) 10 of 10; under setting [3], 8 of 10.

Take `N=C(N)c1ccc(N=NNc2ccc(C(=N)N)cc2)cc1`: the survivor count under setting [3] is on record as 3 of 10 and the survivor count (dose: 200.0 mg/kg/injection, vehicle: saline with Tween-80) is 0 of 10.

`C=COCCCCCC(C)C`: the survivor count runs as follows: under setting [1], 10 of 10; (dose: 400.0 mg/kg/injection, vehicle: Klucel (hydroxypropylcellulose) (HPC)) 9 of 10.
